Experimental data from patent publication US20080260716A1, “Method and Composition for High Level Disinfection Employing Quaternary Ammonium Compounds” (priority 2004, published 2008).

What was measured:
B. subtilis spores = test: AOAC sporicidal test, kill time; assay type: cell-based; conditions: test 1.3; 0.25% benzethonium chloride, 0.25% Triton X-100, 5% isopropanol; 62° C. + ultrasound 20 min/hr
Mycobacterium terrae = test: AOAC tuberculocidal test, kill time; assay type: cell-based; conditions: test 1.3; 0.25% benzethonium chloride, 0.25% Triton X-100, 5% isopropanol; 62° C. + ultrasound 20 min/hr
Source text: Standards have been established for “sterilization”, and for “low”, “intermediate” and “high” level disinfection. These standards are based on the known or possible risk of contamination of a particular medical device by a particular micro-organism, the pathogenic nature of the organism and other principles in infection control. […] The test panels and criteria are different for “low”, “intermediate” or “high-level disinfection”. These terms are herein used in accordance with current Food and Drug Administration (“FDA”) criteria for levels of disinfection which are detailed in Premarket Notification [510(k)] Submissions for Liquid Chemical Sterilants and High Level Disinfectants FDA 1997: “A germicide that inactivates all microbial pathogens except large number of bacterial endospores when used according to labelling”. In brief, the FDA regulatory requirement for high level disinfectants includes as the most challenging test a 100% kill of Mycobacterium tuberculosis var. bovis (or a specific strain of a suitable surrogate, such as Mycobacterium terrae) in 400 p.p.m. hard water in the presence of 2% horse serum in a quantitative tuberculocidal test.
In the following tables unless otherwise specified references to “kill time” mean the time required to achieve complete kill as defined in the relevant AOAC test (more particularly identified in annexure 1). […]

CC(C)(C)CC(C)(C)c1ccc(OCCOCC[N+](C)(C)Cc2ccccc2)cc1 [benzethonium chloride, reference compound]
Kill time B. subtilis (B. subtilis spores): >24 h | Kill Time Mycobacterium terrae (Mycobacterium terrae): >60 min
